{"source": "patent US20230158088A1", "about": "“COMPOSITIONS FOR MODULATING GUT MICROFLORA POPULATIONS, ENHANCING DRUG POTENCY AND TREATING VIRAL INFECTIONS, AND METHODS FOR MAKING AND USING SAME” (PERSEPHONE BIOSCIENCES, INC., priority 2020, published 2023)", "origin": "cited, not measured here", "tested_on": "SARS-CoV-2", "conditions": "hospitalized COVID-19 patients", "note": "At least one structure is not confirmed: it was looked up by name or label, or the drawing left a doubt."}
{"compound": "CCC(CC)COC(=O)[C@H](C)N[P@](=O)(OC[C@H]1O[C@@](C#N)(c2ccc3c(N)ncnn23)[C@H](O)[C@@H]1O)Oc1ccccc1", "note": "[remdesivir]", "values": [{"measurement": "morbidity/mortality and time of recovery", "value": "shows efficacy"}]}
